{"source": "PubChem BioAssay AID1347076", "about": "(National Center for Advancing Translational Sciences (NCATS), 2019)", "note": "The campaign covered roughly 400,000 compounds. About 13,000 (3.2%) were called active. Inconclusive means that the source gave no clear call. Such entries were picked first, then a sample of the others. The call rests on the fitted dose curve; in most records, active means well fitted cell-killing curve with a large enough effect; inconclusive means small, poorly fitted or top-dose-only effect, or effect the other way; inactive means flat fitted curve, though single readings scatter. Where the call is inconclusive, the potency comes from a doubtful curve fit. On the % scale 0 is the no-effect control and ±100 the full control effect; potency means the concentration at half of the fitted maximal effect.", "data": [{"experiment": "qHTS assay for MDR1-selective chemotherapeutics: Primary screen using the drug-selected MDR subline cells KB-V1; further: nearly all actives have a fitted effect of over 60% in size", "conditions": "KB-V1 MDR cells viability, CellTiter-Glo, 72 h; activity change, negative = cytotoxicity: at 46.1 µM (top of the series)", "outline": "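Luminescent ATP read-out (CellTiter-Glo, 10 min) measures survival of drug-selected KB-V1 MDR cells after 72 h, 37 degrees C compound exposure. Medium: phenol-red-free DMEM, 10% FBS. Values from fitted concentration-response curves.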", "values": [{"smiles": "Cc1ccn(CC(=O)N/N=C/c2cc([N+](=O)[O-])ccc2O)n1", "Potency": "inconclusive: 23.1 µM [cytotoxic, single point]"}, {"smiles": "CCN(CC)C1=CC2=CC(=C(C#N)C#N)CCC2CC1", "note": "(stereo not given)", "Potency": "inconclusive: 13 µM [cytotoxic, partial curve, poor fit]"}, {"smiles": "CCOC(=O)C1CCCN(C(=O)C(C)(C)Oc2ccc(Cl)cc2)C1", "note": "(stereo not given)", "Potency": "inconclusive: 10.3 µM [cytotoxic, partial curve, poor fit]"}, {"smiles": "CCOc1cccc(C2C(C(=O)c3ccc(C)o3)=C(O)C(=O)N2CCCn2ccnc2)c1", "note": "(stereo not given)", "Potency": "inconclusive: 29.1 µM [rising, single point]"}, {"smiles": "COc1ccc(-c2[nH]c(-c3cc(OC)c4c(c3)OCO4)nc2-c2ccccc2)cc1", "Potency": "inactive"}, {"smiles": "Clc1ccc(-c2c[n+](Cc3cccc(Cl)c3)c3n2CCC3)cc1", "Potency": "inactive"}, {"smiles": "CNC(=O)c1cccnc1Nc1cccc(C(F)(F)F)c1", "Potency": "inconclusive: 1.84 µM [rising, full curve]"}, {"smiles": "Cc1ccc(C(C)C)c(OCCCN2C(=O)NC(C)(C)C2=O)c1", "Potency": "active: 14.6 µM"}, {"smiles": "CCn1ccc2cc(S(=O)(=O)N3CCCN(C(=O)NCC(C)C)CC3)ccc21", "Potency": "inconclusive: 14.6 µM [cytotoxic, partial curve]"}, {"smiles": "COc1ccc(NS(=O)(=O)c2ccc(NC(=O)Cc3cccs3)cc2)cc1", "Potency": "inactive"}, {"smiles": "Cc1ccccc1CSc1nnc(C)c(=O)[nH]1", "Potency": "inconclusive: 7.31 µM [rising, partial curve]"}, {"smiles": "Cc1ccc(C(=O)Nc2cccc(S(=O)(=O)N3CCCCC3)c2)cc1S(=O)(=O)N1CCOCC1", "Potency": "inactive"}, {"smiles": "CC(=O)c1c(C)[nH]c(C(=O)OCC(=O)Nc2ccc3c(c2)OCCO3)c1C", "Potency": "active: 20.6 µM"}, {"smiles": "N#Cc1c(NC(=O)Cn2cnc3ccccc3c2=O)oc(-c2ccccc2)c1-c1ccccc1", "Potency": "inactive"}, {"smiles": "C/C(=C/CCC(C)(O)C1CC[C@@]2(C)[C@@H]3CC=C4[C@@H](CC[C@H](O[C@H]5O[C@@H](CO)[C@H](O)[C@@H](O)[C@@H]5O)C4(C)C)[C@]3(C)C(=O)C[C@]12C)CO[C@@H]1O[C@H](CO)[C@@H](O)[C@H](O)[C@H]1O", "note": "(stereo not given in full)", "Potency": "inconclusive: 4.11 µM [rising, full curve]"}, {"smiles": "Cc1cccc(C2c3[nH]c4ccccc4c3CCN2Cc2cccn2-c2ncccn2)c1", "note": "(stereo not given)", "Potency": "inconclusive: 11.6 µM [cytotoxic, partial curve]"}, {"smiles": "CCOC(=O)C1CCN(Cc2nc3ccccc3c(=O)n2-c2ccc(F)cc2)CC1", "Potency": "active: 4.11 µM"}, {"smiles": "Cc1cccc(N(C(=O)c2sc(C)nc2C)C(C(=O)NCc2ccco2)c2ccccc2)c1", "note": "(stereo not given)", "Potency": "inconclusive: 29.1 µM [cytotoxic, single point]"}, {"smiles": "O=C(CCc1ccccc1)NC(=S)Nc1ccccc1[N+](=O)[O-]", "activity change, negative = cytotoxicity": "inconclusive: -18.9%"}, {"smiles": "CCn1ccc2cc(S(=O)(=O)N3CCC(C(=O)NCc4cccc(C)c4)CC3)ccc21", "Potency": "inactive"}, {"smiles": "COc1ccc(CCN(C)S(=O)(=O)c2ccc(Cl)nc2)cc1OC", "Potency": "inconclusive: 29.1 µM [cytotoxic, single point]"}, {"smiles": "COc1cc(C=O)ccc1OCc1cccc(Br)c1", "Potency": "inconclusive: 29.1 µM [cytotoxic, partial curve, poor fit]"}, {"smiles": "Cc1sc2ncnc(N3CCOCC3)c2c1C", "Potency": "inconclusive: 29.1 µM [cytotoxic, single point]"}, {"smiles": "CCOC(=O)Nc1cc2c(C)cc(=O)oc2cc1C", "Potency": "inactive"}, {"smiles": "CCOc1ccc(N2CC(C(=O)Nc3cc(Cl)ccc3-n3cncn3)CC2=O)cc1", "note": "(stereo not given)", "Potency": "inconclusive: 10.3 µM [cytotoxic, partial curve, poor fit]"}, {"smiles": "O=C(Nc1ccc(F)cc1F)c1cc(-c2ccccc2O)no1", "Potency": "inconclusive: 7.31 µM [rising, partial curve]"}, {"smiles": "O=C(NCC(c1ccc(F)cc1)N1CCOCC1)c1nn(-c2ccccc2)c(=O)c2ccccc12", "note": "(stereo not given)", "activity change, negative = cytotoxicity": "inconclusive: -1.79%"}, {"smiles": "Fc1ccccc1-c1nc(N2CCCCC2)c2ccccc2n1", "Potency": "active: 13 µM"}, {"smiles": "COCc1c(C(=O)OCC(=O)NCc2ccco2)oc2ccccc12", "Potency": "inactive"}, {"smiles": "CCN(CC)c1ccc(C(=O)O)cc1", "Potency": "inactive"}, {"smiles": "Cc1ccc(Cl)cc1NC(=O)Nc1cccs1", "Potency": "inconclusive: 29.1 µM [cytotoxic, single point]"}, {"smiles": "Cc1ccc2cc(CCNC(=O)c3cccc([N+](=O)[O-])c3)c(=O)[nH]c2c1C", "Potency": "inconclusive: 29.1 µM [cytotoxic, single point]"}, {"smiles": "O=C(NCc1ccc(S(=O)(=O)NC2CCCCC2)s1)c1ccccc1", "Potency": "inconclusive: 29.1 µM [cytotoxic, single point]"}, {"smiles": "Cn1ncc2c(N3CCN(c4ccc(Cl)c(Cl)c4)CC3)ncnc21", "Potency": "active: 2.31 µM"}, {"smiles": "Cc1ccc(CNS(=O)(=O)c2ccc3c(c2)n(C)c(=O)n3C)cc1", "Potency": "inactive"}, {"smiles": "CN(C(=O)COC(=O)/C=C/c1cn(-c2ccccc2)nc1-c1ccc2c(c1)OCCO2)C1CCS(=O)(=O)C1", "note": "(stereo not given)", "Potency": "inactive"}, {"smiles": "Cc1c(NC(=O)CSc2cccc3cccnc23)c(=O)n(-c2ccccc2)n1C", "Potency": "inconclusive: 23.1 µM [cytotoxic, single point]"}, {"smiles": "CCOc1ccc(NC(=O)CN(C)C(=O)c2cc(-c3cccs3)nn2-c2ccccc2)cc1OCC", "Potency": "inconclusive: 5.17 µM [cytotoxic, full curve]"}, {"smiles": "c1ccc2c(-c3ccncc3)c[nH]c2c1", "Potency": "inconclusive: 29.1 µM [cytotoxic, single point]"}, {"smiles": "O=C1CS/C(=N/N=C/c2ccncc2)N1", "Potency": "inconclusive: 18.4 µM [cytotoxic, partial curve]"}, {"smiles": "COC1=CC(=O)[C@@]2([C@@H]1O)[C@@H](Cl)C[C@]13C(OC)=C(OC)C(=O)C[C@]21CCN3C", "Potency": "inactive"}, {"smiles": "COc1ccccc1NC(=O)Cn1nnc(-c2ccccc2NC(=O)c2cnccn2)n1", "Potency": "inconclusive: 2.59 µM [cytotoxic, partial curve]"}, {"smiles": "CCOc1ccc(CNC(=O)c2ccc(-c3nc(CS(=O)(=O)c4ccccc4)c(C)o3)cc2)cc1", "Potency": "inconclusive: 8.2 µM [cytotoxic, partial curve, poor fit]"}, {"smiles": "COc1ccc2[nH]c(CN3CCC(CO)(CCOc4ccccc4)CC3)c(C)c2c1", "Potency": "inconclusive: 29.1 µM [cytotoxic, single point]"}, {"smiles": "COCCn1c(=O)[nH]c2cc(C(=O)NCCN3CCN(c4cccc(Cl)c4)CC3)ccc2c1=O", "Potency": "inactive"}, {"smiles": "Cc1cc(C(=O)COC(=O)c2ccc[nH]c2=O)c(C)n1-c1ccc(F)cc1", "Potency": "active: 18.4 µM"}, {"smiles": "Cc1cc([N+](=O)[O-])ccc1NC(=O)c1cc2ccccc2o1", "Potency": "inconclusive: 7.31 µM [cytotoxic, partial curve]"}, {"smiles": "Cc1ccc2nc3c(nc2c1)-c1ccccc1C3=O", "Potency": "inconclusive: 29.1 µM [cytotoxic, single point]"}, {"smiles": "Cc1ccc2occ(CN3CCN(c4ccccc4)CC3)c(=O)c2c1", "Potency": "active: 23.1 µM"}, {"smiles": "CCCC(=O)OCCNc1cc(Sc2nccn2C)c2nonc2c1[N+](=O)[O-]", "Potency": "inactive"}, {"smiles": "CCN(CC)C(=O)CSc1nc(-c2cccs2)cc(-c2cccs2)c1C#N", "Potency": "active: 18.4 µM"}, {"smiles": "O=C(Nc1cccc(C(F)(F)F)c1)C1CCCN1S(=O)(=O)c1cccc2cccnc12", "note": "(stereo not given)", "Potency": "active: 2.59 µM"}, {"smiles": "COc1cccc(NC(=O)C(=O)N/N=C/c2cc(C)n(-c3ccc(Cl)c(Cl)c3)c2C)c1", "Potency": "inactive"}, {"smiles": "Cn1cc(S(=O)(=O)N2CCC(Cc3ccccc3)CC2)c(=O)n(C)c1=O", "Potency": "inconclusive: 2.91 µM [cytotoxic, full curve]"}, {"smiles": "CCOC(=O)c1ccc2c(c1)n(CCO)c(C)[n+]2CC", "Potency": "inactive"}, {"smiles": "CC(=O)Nc1cc(NC(C)=O)cc(C(=O)OCC(=O)Nc2ccc(S(=O)(=O)NC3=NCCCCC3)cc2)c1", "Potency": "inconclusive: 25.9 µM [rising, single point]"}, {"smiles": "Cc1c(C(=O)Oc2cccc3ccccc23)cnn1-c1ccccc1", "Potency": "inconclusive: 16.4 µM [cytotoxic, single point]"}, {"smiles": "Nc1nc(SCC(=O)Nc2ccc([N+](=O)[O-])cc2)[nH]c(=O)c1NC(=O)c1ccc(Br)o1", "Potency": "inactive"}, {"smiles": "CC1=C(C(=O)Nc2ccc(CC(=O)NCc3ccccc3C)cc2)SCCO1", "Potency": "inactive"}, {"smiles": "Cc1cc([N+](=O)[O-])ccc1NC1CCCC1", "Potency": "active: 16.4 µM"}, {"smiles": "COc1ccc(N(CC(=O)N2CCN(c3cccc(C)c3C)CC2)S(=O)(=O)c2c(C)noc2C)cc1", "Potency": "inactive"}, {"smiles": "O=C(CNC(=O)c1ccccc1F)NCCN1C(=O)S/C(=C\\c2ccc3c(c2)OCO3)C1=O", "Potency": "inactive"}, {"smiles": "Cc1cc2cc(CN(CCN(C)C)C(=S)NCc3ccco3)c(=O)[nH]c2cc1C", "Potency": "inactive"}, {"smiles": "Cc1cc2nnc(SC(C)C)n2c2ccccc12", "Potency": "inconclusive: 5.8 µM [cytotoxic, partial curve, poor fit]"}, {"smiles": "CC1CN(CC(=O)Nc2nc(-c3ccc(Cl)cc3)cs2)CC(C)O1", "note": "(stereo not given)", "Potency": "inconclusive: 29.1 µM [cytotoxic, single point]"}, {"smiles": "COCCN(CC(=O)Nc1cccc(C)c1C)C(=O)c1cc(-c2ccncc2)nc2ccccc12", "Potency": "inconclusive: 29.1 µM [cytotoxic, single point]"}, {"smiles": "COC(=O)c1c(NC(=O)c2nn(C)cc2Cl)sc2c1CCCC2", "Potency": "active: 5.8 µM"}, {"smiles": "Cc1ccccc1-c1ccc(CN2C(C(C)C)C(=O)N(Cc3cn(CCC4OCCO4)nn3)CCS2(=O)=O)cc1", "note": "(stereo not given)", "Potency": "inconclusive: 20.6 µM [cytotoxic, single point]"}, {"smiles": "Cc1cc(C(=O)N/N=C/c2cc(Br)cc([N+](=O)[O-])c2O)c2ccccc2n1", "Potency": "inconclusive: 25.9 µM [cytotoxic, single point]"}, {"smiles": "COc1ccc(NC(=O)CC2(Cc3ccccc3)CCOC(C)(C)C2)cc1", "note": "(stereo not given)", "Potency": "inconclusive: 23.1 µM [cytotoxic, single point]"}]}]}
